# According to patent US20060281109, “Polymerases” (published 2006):
# Positions count from the first letter of the chain named. A weaker result is weaker than the reference pair of the same experiment. For some assays here: Where a protein sequence is shown, tags need not be part of it.
# What was measured:
# [1] = molecular target: T1, 9°N-7 YAV C223S exo- R713A (Thermococcus sp. 9°N-7) (UniProt Q56366); assay: binding assay; conditions: 5'-amino, surface coupled; washing assay; more effectively removed at NaCl <200 mM; purified recombinant protein; folded or branched DNA
# T1 sequence: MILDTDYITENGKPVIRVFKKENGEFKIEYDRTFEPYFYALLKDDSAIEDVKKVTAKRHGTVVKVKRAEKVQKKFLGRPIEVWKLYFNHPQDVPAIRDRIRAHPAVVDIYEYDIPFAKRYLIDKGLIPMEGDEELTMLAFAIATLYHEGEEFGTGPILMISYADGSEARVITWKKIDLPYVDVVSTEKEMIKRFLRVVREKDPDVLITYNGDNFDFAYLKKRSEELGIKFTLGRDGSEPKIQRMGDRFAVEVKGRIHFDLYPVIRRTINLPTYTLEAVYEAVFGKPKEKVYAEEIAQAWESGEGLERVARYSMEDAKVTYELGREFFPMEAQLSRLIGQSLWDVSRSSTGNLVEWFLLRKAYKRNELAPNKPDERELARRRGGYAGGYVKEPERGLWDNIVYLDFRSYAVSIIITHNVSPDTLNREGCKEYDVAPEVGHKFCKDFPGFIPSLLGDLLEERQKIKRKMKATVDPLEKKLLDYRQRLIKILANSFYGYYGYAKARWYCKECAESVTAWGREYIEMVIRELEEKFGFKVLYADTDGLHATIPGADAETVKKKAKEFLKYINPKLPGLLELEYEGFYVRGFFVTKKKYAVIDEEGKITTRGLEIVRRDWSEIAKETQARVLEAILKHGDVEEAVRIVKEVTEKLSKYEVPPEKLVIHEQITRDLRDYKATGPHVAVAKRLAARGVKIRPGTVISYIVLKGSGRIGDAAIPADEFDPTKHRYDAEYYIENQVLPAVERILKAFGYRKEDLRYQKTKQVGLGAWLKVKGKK
# [2] = molecular target: T2, 9°N-7 YAV C223S exo- R743A (Thermococcus sp. 9°N-7) (UniProt Q56366); assay: binding assay; conditions: 5'-amino, surface coupled; washing assay; more effectively removed at NaCl <200 mM; purified recombinant protein; folded or branched DNA
# T2 sequence: T1 sequence with K705A, A713R
sequence,measurement,setting,value
CGATCACGATCACGATCACGATCACGATCACGATCACGCTGATGTGCATGCTGTTGTTTTTTTACAACAGCATGCACATCAGCG [A-template hairpin oligo 815],binding result,[1],binds more weakly
same,binding result,[2],binds more weakly
